PubChem BioAssay AID1259254, NCATS | 2017
Purpose: 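Genome-wide screen for genes that prevent DNA re-replication in cancer cells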 (primary screen). Cell system: human HCT116 colorectal cancer cells. Reagent: single siRNA against human genes. Time to read-out: 3 days. Measurement: 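Nuclei stained with Hoechst and imaged; cell-cycle phase assigned by DNA content; G2 share scaled per plate, non-targeting siRNA 0%, GMNN siRNA 100%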. Direction: G2 robust z-score and G2 cells, % of GMNN control: higher = more G2 cells, more excess DNA replication. Hit rule: 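An siRNA counts as active if its G2 robust z-score lies at least 5 MADs above the screen median; here such calls match roughly 38% of GMNN control or more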.
Shown is a random part of about 59,000 reagents tested. Over the whole deposit, about 1,550 (2.6%) are marked active. 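G2 share is only a proxy for re-replication; each gene was hit by three separate siRNAs, and active genes were retested.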 Unmarked entries are inactive. The numbers tell different reagents against one gene apart. Further read-outs or replicates are left out here. Reagent sequences are not shown. Not given: the amount of reagent.

ID1 #1 | G2 robust z-score: 0.17; G2 cells, % of GMNN control: 4.16
ID1 #2 | G2 robust z-score: -0.661; G2 cells, % of GMNN control: -1.68
ID1 #3 | G2 robust z-score: -0.266; G2 cells, % of GMNN control: 1.1
POGZ #1 | G2 robust z-score: 5.6 (active); G2 cells, % of GMNN control: 42.4
POGZ #2 | G2 robust z-score: -0.791; G2 cells, % of GMNN control: -2.6
POGZ #3 | G2 robust z-score: 0.606; G2 cells, % of GMNN control: 7.23
TEAD2 #1 | G2 robust z-score: 0.29; G2 cells, % of GMNN control: 5.01
TEAD2 #2 | G2 robust z-score: 0.557; G2 cells, % of GMNN control: 6.89
TEAD2 #3 | G2 robust z-score: -0.361; G2 cells, % of GMNN control: 0.425
PITRM1 #1 | G2 robust z-score: 0.61; G2 cells, % of GMNN control: 7.26
PITRM1 #2 | G2 robust z-score: 2.58; G2 cells, % of GMNN control: 21.1
PITRM1 #3 | G2 robust z-score: -0.0672; G2 cells, % of GMNN control: 2.49
NLRP7 #1 | G2 robust z-score: 0.632; G2 cells, % of GMNN control: 7.42
NLRP7 #2 | G2 robust z-score: 3.04; G2 cells, % of GMNN control: 24.3
NLRP7 #3 | G2 robust z-score: -0.634; G2 cells, % of GMNN control: -1.5
SYK #1 | G2 robust z-score: -0.405; G2 cells, % of GMNN control: 0.116
SYK #2 | G2 robust z-score: -0.0382; G2 cells, % of GMNN control: 2.7
SYK #3 | G2 robust z-score: -0.832; G2 cells, % of GMNN control: -2.88
XK #1 | G2 robust z-score: 1.68; G2 cells, % of GMNN control: 14.8
XK #2 | G2 robust z-score: 1.07; G2 cells, % of GMNN control: 10.5
XK #3 | G2 robust z-score: -0.346; G2 cells, % of GMNN control: 0.532
ZNF436-AS1 #1 | G2 robust z-score: -0.263; G2 cells, % of GMNN control: 1.12
ZNF436-AS1 #2 | G2 robust z-score: 1.44; G2 cells, % of GMNN control: 13.1
ZNF436-AS1 #3 | G2 robust z-score: 0.749; G2 cells, % of GMNN control: 8.24

In a second layout: results already given.
TEAD2 #2
- G2 robust z-score: 0.557
- G2 cells, % of GMNN control: 6.89

TEAD2 #3
- G2 robust z-score: -0.361
- G2 cells, % of GMNN control: 0.425
